Reference: patent US9198965B2 (priority 2008, dated 2015)
Some entries share one result that the patent states for a list of compounds.

System: PR/8 virus
Parameters: species or system Balb/C mice
Details: mouse, in vivo

RRKKLAALPLVLAAPLAVLA [EBX, reference compound]
survival rate: less than 60%
